Data from article PMC5130011.
These are yes or no findings as the source states them, for the method shown. Binding seen in cells or lysates may run through a third protein. Some results given as binding are weak or reduced against the parent protein; the word gives no strength.

T1: c-JUN (human (endogenous in TNBC cells)), P05412
T1 chain: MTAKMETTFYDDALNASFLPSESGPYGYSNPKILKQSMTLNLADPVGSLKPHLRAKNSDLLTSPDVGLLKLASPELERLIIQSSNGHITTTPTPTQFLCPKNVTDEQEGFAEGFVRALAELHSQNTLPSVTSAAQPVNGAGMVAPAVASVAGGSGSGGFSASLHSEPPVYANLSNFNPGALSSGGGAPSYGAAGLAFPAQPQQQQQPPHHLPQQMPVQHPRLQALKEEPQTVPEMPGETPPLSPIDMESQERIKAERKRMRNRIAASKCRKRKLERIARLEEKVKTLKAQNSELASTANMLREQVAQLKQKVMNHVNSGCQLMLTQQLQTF


How the values were obtained:
[1] = target: c-JUN (human (endogenous in TNBC cells)) (UniProt P05412); assay: co-IP; cJUN immunoprecipitated with anti-cJUN antibody (clone C.238.2) on Dynabeads protein G from 200 μg nuclear extract of mock or TP4-treated TNBC cells; FRA1 or FOSB detected by Western blot; nonspecific IgG as negative control
[2] = target: T1, c-JUN (human (endogenous in TNBC …)); assay: as above; settings: remark: other sources report otherwise

Row | Binder | binding [1] | binding [2]
1 | FRA1 (protein, UniProt P15407 1-271) MFRDFGEPGPSSGNGGGYGGPAQPPAAAQAAQQKFHLVPSINTMSGSQELQWMVQPHFLGPSSYPRPLTYPQYSPPQPRPGVIRALGPPPGVRRRPCEQISPEEEERRRVRRERNKLAAAKCRNRRKELTDFLQAETDKLEDEKSGLQREIEELQKQKERLELVLEAHRPICKIPEGAKEGDTGSTSGTSSPPAPCRPVPCISLSPGPVLEPEALHTPTLMTTPSLTPFTPSLVFTYPSTPEPCASAHRKSSSSSGDPSSDPLGSPTLLAL | binds | 
2 | FOSB, P53539 1-338 (protein) MFQAFPGDYDSGSRCSSSPSAESQYLSSVDSFGSPPTAAASQECAGLGEMPGSFVPTVTAITTSQDLQWLVQPTLISSMAQSQGQPLASQPPVVDPYDMPGTSYSTPGMSGYSSGGASGSGGPSTSGTTSGPGPARPARARPRRPREETLTPEEEEKRRVRRERNKLAAAKCRNRRRELTDRLQAETDQLEEEKAELESEIAELQKEKERLEFVLVAHKPGCKIPYEEGPGPGPLAEVRDLPGSAPAKEDGFSWLLPPPPPPPLPFQTSQDAPPNLTASLFTHSEVQVLGDPFPVVNPSYTSSFVLTCPEVSAFAGAQRTSGSDQPSDPLNSPSLLAL |  | binds
